# Assay results from PMC11214836, “ILF3 safeguards telomeres from aberrant homologous recombination as a telomeric R-loop reader”.
# By UniProt entry, the sequences of proteins in these tests, tags left out.
# UniProt Q08211: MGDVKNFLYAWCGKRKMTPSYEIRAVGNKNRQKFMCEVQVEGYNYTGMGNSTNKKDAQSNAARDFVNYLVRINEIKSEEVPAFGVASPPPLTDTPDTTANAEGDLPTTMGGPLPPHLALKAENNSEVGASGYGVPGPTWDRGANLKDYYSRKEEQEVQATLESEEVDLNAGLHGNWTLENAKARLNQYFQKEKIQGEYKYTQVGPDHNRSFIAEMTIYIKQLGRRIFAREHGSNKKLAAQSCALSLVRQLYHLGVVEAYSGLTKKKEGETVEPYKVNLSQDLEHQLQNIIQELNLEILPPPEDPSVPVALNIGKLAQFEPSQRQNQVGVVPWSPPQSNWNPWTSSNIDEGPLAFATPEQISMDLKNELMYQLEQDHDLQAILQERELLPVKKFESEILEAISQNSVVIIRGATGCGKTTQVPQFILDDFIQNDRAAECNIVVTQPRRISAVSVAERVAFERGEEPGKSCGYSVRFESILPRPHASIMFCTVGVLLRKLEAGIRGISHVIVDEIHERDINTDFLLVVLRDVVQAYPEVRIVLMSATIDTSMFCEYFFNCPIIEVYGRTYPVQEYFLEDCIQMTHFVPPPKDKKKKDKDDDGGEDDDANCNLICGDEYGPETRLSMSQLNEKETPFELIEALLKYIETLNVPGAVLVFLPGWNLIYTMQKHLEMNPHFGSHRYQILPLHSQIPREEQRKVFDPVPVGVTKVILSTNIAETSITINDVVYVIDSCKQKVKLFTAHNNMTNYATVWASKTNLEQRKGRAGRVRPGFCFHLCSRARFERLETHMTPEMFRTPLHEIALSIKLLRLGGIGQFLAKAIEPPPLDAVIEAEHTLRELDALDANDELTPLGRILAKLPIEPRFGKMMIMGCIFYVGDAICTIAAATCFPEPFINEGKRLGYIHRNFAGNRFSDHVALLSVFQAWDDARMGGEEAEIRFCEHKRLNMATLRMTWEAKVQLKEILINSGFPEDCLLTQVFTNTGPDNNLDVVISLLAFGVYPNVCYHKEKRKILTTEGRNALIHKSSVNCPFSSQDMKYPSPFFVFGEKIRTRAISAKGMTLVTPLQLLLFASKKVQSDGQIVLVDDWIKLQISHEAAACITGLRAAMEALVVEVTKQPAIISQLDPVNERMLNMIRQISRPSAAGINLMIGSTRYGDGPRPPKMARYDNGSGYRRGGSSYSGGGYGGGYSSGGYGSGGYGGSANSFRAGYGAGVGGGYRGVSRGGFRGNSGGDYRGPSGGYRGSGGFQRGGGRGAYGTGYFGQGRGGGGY
# UniProt Q96AP0: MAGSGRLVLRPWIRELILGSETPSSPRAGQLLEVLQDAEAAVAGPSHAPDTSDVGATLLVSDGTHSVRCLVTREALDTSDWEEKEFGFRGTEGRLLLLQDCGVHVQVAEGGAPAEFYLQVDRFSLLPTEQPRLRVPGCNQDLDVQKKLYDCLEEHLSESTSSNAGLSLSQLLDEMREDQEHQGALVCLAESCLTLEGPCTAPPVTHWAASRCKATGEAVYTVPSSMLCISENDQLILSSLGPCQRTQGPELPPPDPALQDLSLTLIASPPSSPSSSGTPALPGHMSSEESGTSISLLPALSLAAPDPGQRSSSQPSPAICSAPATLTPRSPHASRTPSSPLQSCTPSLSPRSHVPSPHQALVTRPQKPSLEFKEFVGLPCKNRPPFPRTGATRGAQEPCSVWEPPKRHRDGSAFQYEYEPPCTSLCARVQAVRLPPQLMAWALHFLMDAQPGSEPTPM
# UniProt P54274: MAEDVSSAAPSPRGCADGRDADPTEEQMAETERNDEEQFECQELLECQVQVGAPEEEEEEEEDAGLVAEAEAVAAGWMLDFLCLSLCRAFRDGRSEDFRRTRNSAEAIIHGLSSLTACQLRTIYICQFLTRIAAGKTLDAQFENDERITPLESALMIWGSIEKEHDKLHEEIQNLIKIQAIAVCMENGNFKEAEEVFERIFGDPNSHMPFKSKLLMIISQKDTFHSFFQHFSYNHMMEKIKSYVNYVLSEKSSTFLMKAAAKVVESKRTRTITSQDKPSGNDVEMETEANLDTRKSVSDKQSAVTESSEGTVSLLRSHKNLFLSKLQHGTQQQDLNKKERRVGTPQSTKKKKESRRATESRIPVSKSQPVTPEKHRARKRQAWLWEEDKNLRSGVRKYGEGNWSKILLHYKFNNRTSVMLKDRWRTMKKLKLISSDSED
# These are yes or no findings as the source states them, for the method shown. Binding seen in cells or lysates may run through a third protein. Some binding calls cover weakened binding; strength is not graded here. Tags and fused reporters may be left off the sequences shown.
# T1: NC-tagged POT1 (UniProt Q9NUX5)
# T1 sequence: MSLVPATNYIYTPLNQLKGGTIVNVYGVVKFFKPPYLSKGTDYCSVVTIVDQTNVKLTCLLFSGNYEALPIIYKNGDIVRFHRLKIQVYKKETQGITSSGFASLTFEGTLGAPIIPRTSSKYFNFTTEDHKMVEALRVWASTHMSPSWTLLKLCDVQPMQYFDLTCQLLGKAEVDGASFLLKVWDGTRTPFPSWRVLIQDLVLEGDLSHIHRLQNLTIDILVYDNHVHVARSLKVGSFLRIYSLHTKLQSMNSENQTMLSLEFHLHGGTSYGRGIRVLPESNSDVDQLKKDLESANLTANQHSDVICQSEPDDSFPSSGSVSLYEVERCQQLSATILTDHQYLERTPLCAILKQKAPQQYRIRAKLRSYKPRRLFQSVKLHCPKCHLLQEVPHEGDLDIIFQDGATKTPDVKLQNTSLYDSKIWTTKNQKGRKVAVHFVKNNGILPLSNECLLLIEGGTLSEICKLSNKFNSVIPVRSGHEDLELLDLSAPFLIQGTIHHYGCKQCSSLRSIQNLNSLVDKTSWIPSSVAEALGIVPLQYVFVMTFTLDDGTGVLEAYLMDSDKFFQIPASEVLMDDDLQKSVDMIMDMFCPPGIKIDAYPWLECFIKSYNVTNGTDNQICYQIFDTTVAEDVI
# T2: NC-tagged RAP1 (UniProt Q9NYB0)
# T2 sequence: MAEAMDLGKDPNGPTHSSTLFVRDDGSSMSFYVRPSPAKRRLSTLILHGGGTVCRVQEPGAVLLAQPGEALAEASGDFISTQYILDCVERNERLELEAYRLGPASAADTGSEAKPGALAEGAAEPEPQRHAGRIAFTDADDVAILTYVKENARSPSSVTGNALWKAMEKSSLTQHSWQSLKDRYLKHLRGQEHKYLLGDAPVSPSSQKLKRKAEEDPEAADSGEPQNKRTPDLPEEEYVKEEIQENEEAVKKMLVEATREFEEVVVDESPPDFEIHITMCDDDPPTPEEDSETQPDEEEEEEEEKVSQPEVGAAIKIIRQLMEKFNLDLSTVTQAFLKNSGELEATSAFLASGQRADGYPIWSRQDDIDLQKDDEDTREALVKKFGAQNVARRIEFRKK
# Columns and labels:
# SFB-tagged DHX9 = SFB-tagged DHX9 (UniProt Q08211); experiment: co-IP; HEK293T cells transiently co-expressing SFB-tagged DHX9 and GST-tagged proteins; IP with anti-FLAG antibodies, Western blot
# NC-tagged POT1 = molecular target: T1, NC-tagged POT1; experiment: split reporter; pairwise BiFC in HEK293T cells, NVN- and NC-tagged (Venus YFP halves) proteins co-expressed, fluorescence complementation read by flow cytometry
# NC-tagged TPP1 = NC-tagged TPP1 (UniProt Q96AP0); experiment: as above
# NC-tagged RAP1 = molecular target: T2, NC-tagged RAP1; experiment: as above
molecule,measurement,setting,value
GST-tagged TRF1 (from UniProt P54274 1-439),binding,SFB-tagged DHX9,binds
"GST-tagged ILF3 (protein, UniProt Q12906 1-894) MRPMRIFVNDDRHVMAKHSSVYPTQEELEAVQNMVSHTERALKAVSDWIDEQEKGSSEQAESDNMDVPPEDDSKEGAGEQKTEHMTRTLRGVMRVGLVAKGLLLKGDLDLELVLLCKEKPTTALLDKVADNLAIQLAAVTEDKYEILQSVDDAAIVIKNTKEPPLSLTIHLTSPVVREEMEKVLAGETLSVNDPPDVLDRQKCLAALASLRHAKWFQARANGLKSCVIVIRVLRDLCTRVPTWGPLRGWPLELLCEKSIGTANRPMGAGEALRRVLECLASGIVMPDGSGIYDPCEKEATDAIGHLDRQQREDITQSAQHALRLAAFGQLHKVLGMDPLPSKMPKKPKNENPVDYTVQIPPSTTYAITPMKRPMEEDGEEKSPSKKKKKIQKKEEKAEPPQAMNALMRLNQLKPGLQYKLVSQTGPVHAPIFTMSVEVDGNSFEASGPSKKTAKLHVAVKVLQDMGLPTGAEGRDSSKGEDSAEETEAKPAVVAPAPVVEAVSTPSAAFPSDATAEQGPILTKHGKNPVMELNEKRRGLKYELISETGGSHDKRFVMEVEVDGQKFQGAGSNKKVAKAYAALAALEKLFPDTPLALDANKKKRAPVPVRGGPKFAAKPHNPGFGMGGPMHNEVPPPPNLRGRGRGGSIRGRGRGRGFGGANHGGYMNAGAGYGSYGYGGNSATAGYSQFYSNGGHSGNASGGGGGGGGGSSGYGSYYQGDNYNSPVPPKHAGKKQPHGGQQKPSYGSGYQSHQGQQQSYNQSPYSNYGPPQGKQKGYNHGQGSYSYSNSYNSPGGGGGSDYNYESKFNYSGSGGRSGGNSYGSGGASYNPGSHGGYGGGSGGGSSYQGKQGGYSQSNYNSPGSGQNYSGPPSSYQSSQGGYGRNADHSMNYQYR",binding,SFB-tagged DHX9,binds
"NVN-tagged ILF3 (protein, UniProt Q12906 1-894) MRPMRIFVNDDRHVMAKHSSVYPTQEELEAVQNMVSHTERALKAVSDWIDEQEKGSSEQAESDNMDVPPEDDSKEGAGEQKTEHMTRTLRGVMRVGLVAKGLLLKGDLDLELVLLCKEKPTTALLDKVADNLAIQLAAVTEDKYEILQSVDDAAIVIKNTKEPPLSLTIHLTSPVVREEMEKVLAGETLSVNDPPDVLDRQKCLAALASLRHAKWFQARANGLKSCVIVIRVLRDLCTRVPTWGPLRGWPLELLCEKSIGTANRPMGAGEALRRVLECLASGIVMPDGSGIYDPCEKEATDAIGHLDRQQREDITQSAQHALRLAAFGQLHKVLGMDPLPSKMPKKPKNENPVDYTVQIPPSTTYAITPMKRPMEEDGEEKSPSKKKKKIQKKEEKAEPPQAMNALMRLNQLKPGLQYKLVSQTGPVHAPIFTMSVEVDGNSFEASGPSKKTAKLHVAVKVLQDMGLPTGAEGRDSSKGEDSAEETEAKPAVVAPAPVVEAVSTPSAAFPSDATAEQGPILTKHGKNPVMELNEKRRGLKYELISETGGSHDKRFVMEVEVDGQKFQGAGSNKKVAKAYAALAALEKLFPDTPLALDANKKKRAPVPVRGGPKFAAKPHNPGFGMGGPMHNEVPPPPNLRGRGRGGSIRGRGRGRGFGGANHGGYMNAGAGYGSYGYGGNSATAGYSQFYSNGGHSGNASGGGGGGGGGSSGYGSYYQGDNYNSPVPPKHAGKKQPHGGQQKPSYGSGYQSHQGQQQSYNQSPYSNYGPPQGKQKGYNHGQGSYSYSNSYNSPGGGGGSDYNYESKFNYSGSGGRSGGNSYGSGGASYNPGSHGGYGGGSGGGSSYQGKQGGYSQSNYNSPGSGQNYSGPPSSYQSSQGGYGRNADHSMNYQYR",binding,NC-tagged POT1,binds
same,binding,NC-tagged TPP1,binds
same,binding,NC-tagged RAP1,binds
